Results are given in words; binding and its absence hold for the method and conditions named. Some results given as binding are weak or reduced against the parent protein; the word gives no strength.
How the values were obtained:
Assay in all cases: peptide or protein array; both purified
[1] = target: 89.6-Vpr dodecapeptide 29 (cellulose-bound) (HIV-1 (89.6 isolate))
[2] = target: 89.6-Vpr dodecapeptide 30 (cellulose-bound) (HIV-1 (89.6 isolate))
[3] = target: 89.6-Vpr dodecapeptide 31 (cellulose-bound) (HIV-1 (89.6 isolate))
[4] = target: 89.6-Vpr dodecapeptide 32 (cellulose-bound) (HIV-1 (89.6 isolate))

The chains behind the UniProt entries cited, without tags or fusion partners.
UniProt P30153: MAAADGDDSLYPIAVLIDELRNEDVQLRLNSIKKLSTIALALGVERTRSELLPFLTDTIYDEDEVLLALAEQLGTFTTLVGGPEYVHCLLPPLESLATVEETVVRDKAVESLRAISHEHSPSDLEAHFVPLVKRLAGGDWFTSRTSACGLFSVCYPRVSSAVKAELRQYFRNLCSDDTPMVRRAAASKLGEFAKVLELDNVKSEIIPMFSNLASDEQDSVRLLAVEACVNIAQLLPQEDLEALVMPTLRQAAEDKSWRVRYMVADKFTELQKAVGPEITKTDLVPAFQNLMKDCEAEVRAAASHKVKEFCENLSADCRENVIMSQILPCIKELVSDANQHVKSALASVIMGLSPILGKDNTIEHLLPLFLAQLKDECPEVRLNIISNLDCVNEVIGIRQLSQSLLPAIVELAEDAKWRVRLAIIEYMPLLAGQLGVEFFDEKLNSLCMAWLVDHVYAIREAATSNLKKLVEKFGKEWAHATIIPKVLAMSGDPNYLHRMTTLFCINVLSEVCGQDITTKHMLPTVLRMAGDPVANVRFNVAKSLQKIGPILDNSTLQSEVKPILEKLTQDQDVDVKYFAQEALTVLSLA

Measured: binding

recombinant PP2A-A subunit (from UniProt P30153 1-589)
binds: [1] | [2] | [3] | [4]
